# Source: PMC8384837
# Numbering of substitutions follows the chain as printed. This is one part of the list. For some assays here: At the low end of the ranking the order means little.
# How the values were obtained:
# Settings in all cases: yeast three-hybrid, YBZ-1, SC-Leu-His + 0.5 mM 3-AT, 4 days
# [1] = target: T1, PUM1 PUF domain R1-KSR S863K + R864S + Q867R (UniProt Q14671)
# T1 sequence: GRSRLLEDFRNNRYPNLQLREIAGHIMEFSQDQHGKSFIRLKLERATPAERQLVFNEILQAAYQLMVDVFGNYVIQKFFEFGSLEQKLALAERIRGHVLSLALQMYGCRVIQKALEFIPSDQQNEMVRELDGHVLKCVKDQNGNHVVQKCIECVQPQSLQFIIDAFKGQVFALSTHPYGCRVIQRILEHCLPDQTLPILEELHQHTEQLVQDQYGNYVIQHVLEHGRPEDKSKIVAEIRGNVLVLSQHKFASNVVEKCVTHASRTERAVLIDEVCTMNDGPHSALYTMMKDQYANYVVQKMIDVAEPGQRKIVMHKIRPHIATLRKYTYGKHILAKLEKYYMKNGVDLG
# [2] = target: T2, PUM1 PUF domain R1-LKR S863L + R864K + Q867R (Homo sapiens) (UniProt Q14671)
# T2 sequence: T1 sequence with K36L, S37K
# [3] = target: T3, PUM1 PUF domain R1-LRR S863L + Q867R (Homo sapiens) (UniProt Q14671)
# T3 sequence: T1 sequence with K36L, S37R
# [4] = target: T4, PUM1 PUF domain R1-LWK S863L + R864W + Q867K (UniProt Q14671)
# T4 sequence: T1 sequence with K36L, S37W, R40K
# [5] = target: T5, PUM1 PUF domain R1-MPR S863M + R864P + Q867R (Homo sapiens) (UniProt Q14671)
# T5 sequence: T1 sequence with K36M, S37P
# [6] = target: T6, PUM1 PUF domain R1-MRR S863M + Q867R (Homo sapiens) (UniProt Q14671)
# T6 sequence: T1 sequence with K36M, S37R
# [7] = target: T7, PUM1 PUF domain R1-MWR S863M + R864W + Q867R (Homo sapiens) (UniProt Q14671)
# T7 sequence: T1 sequence with K36M, S37W
# [8] = target: T8, PUM1 PUF domain R1-MYR S863M + R864Y + Q867R (Homo sapiens) (UniProt Q14671)
# T8 sequence: T1 sequence with K36M, S37Y
# [9] = target: T9, PUM1 PUF domain R1-NFV S863N + R864F + Q867V (UniProt Q14671)
# T9 sequence: T1 sequence with K36N, S37F, R40V
# [10] = target: T10, PUM1 PUF domain R1-NIG S863N + R864I + Q867G (UniProt Q14671)
# T10 sequence: T1 sequence with K36N, S37I, R40G
# [11] = target: T11, PUM1 PUF domain R1-NIS S863N + R864I + Q867S (UniProt Q14671)
# T11 sequence: T1 sequence with K36N, S37I, R40S
# [12] = target: T12, PUM1 PUF domain R1-NLR S863N + R864L + Q867R (Homo sapiens) (UniProt Q14671)
# T12 sequence: T1 sequence with K36N, S37L
# [13] = target: T13, PUM1 PUF domain R1-NLV S863N + R864L + Q867V (Homo sapiens) (UniProt Q14671)
# T13 sequence: T1 sequence with K36N, S37L, R40V
# [14] = target: T14, PUM1 PUF domain R1-NRR S863N + Q867R (Homo sapiens) (UniProt Q14671)
# T14 sequence: T1 sequence with K36N, S37R
# [15] = target: T15, PUM1 PUF domain R1-NVR S863N + R864V + Q867R (Homo sapiens) (UniProt Q14671)
# T15 sequence: T1 sequence with K36N, S37V
# [16] = target: T16, PUM1 PUF domain R1-NIS S863N + R864I + Q867S (Homo sapiens) (UniProt Q14671)
# T16 sequence: T1 sequence with K36N, S37I, R40S
# [17] = target: T17, PUM1 PUF domain R1-KSS S863K + R864S + Q867S (Homo sapiens) (UniProt Q14671)
# T17 sequence: T1 sequence with R40S
# [18] = target: T18, PUM1 PUF domain R1-LWK S863L + R864W + Q867K (Homo sapiens) (UniProt Q14671)
# T18 sequence: T1 sequence with K36L, S37W, R40K
# [19] = target: T19, PUM1 PUF domain R1-QFR R2-VFQ R3-THE R4-TFR R6-SWD R7-NPG S863Q + R864F + Q867R + N899V + Y900F + C935T + R936H + Q939E + N971T + H972F + Q975R + N1043S + Y1044W + Q1047D + S1079N + N1080P + E1083G (Homo sapiens) (UniProt Q14671)
# T19 sequence: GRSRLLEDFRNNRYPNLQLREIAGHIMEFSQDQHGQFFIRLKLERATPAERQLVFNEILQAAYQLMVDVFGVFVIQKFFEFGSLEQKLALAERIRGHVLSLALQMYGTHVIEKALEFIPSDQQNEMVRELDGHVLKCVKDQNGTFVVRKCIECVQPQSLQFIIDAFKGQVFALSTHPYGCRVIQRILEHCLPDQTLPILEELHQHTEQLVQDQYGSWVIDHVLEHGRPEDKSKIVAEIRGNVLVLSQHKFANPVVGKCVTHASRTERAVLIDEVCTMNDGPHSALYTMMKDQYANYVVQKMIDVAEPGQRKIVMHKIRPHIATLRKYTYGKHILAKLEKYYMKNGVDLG
# [20] = target: T20, PUM1 PUF domain R1-QFR R2-VFQ R3-THE R4-TFR S863Q + R864F + Q867R + N899V + Y900F + C935T + R936H + Q939E + N971T + H972F + Q975R (Homo sapiens) (UniProt Q14671)
# T20 sequence: T19 sequence with S216N, W217Y, D220Q, N252S, P253N, G256E
sequence,measurement,setting,value
GGCUAGAACUAGUGGAUCCCCCGGCGCCCGGCGGCUCGAGCCCGGGUAAGUGUAAAUGGUCUGCAUGCCGCCGGGCGCCAUGCCUGCAGGUCGACUCUAGAAAACAUG,binding signal (log2 enrichment (interaction score)),[1],-2.37
same,binding signal (log2 enrichment (interaction score)),[2],-0.22
same,binding signal (log2 enrichment (interaction score)),[3],-0.33
same,binding signal (log2 enrichment (interaction score)),[4],-5.55
same,binding signal (log2 enrichment (interaction score)),[5],0.06
same,binding signal (log2 enrichment (interaction score)),[6],-0.76
same,binding signal (log2 enrichment (interaction score)),[7],-0.36
same,binding signal (log2 enrichment (interaction score)),[8],-0.3
same,binding signal (log2 enrichment (interaction score)),[9],-3.34
same,binding signal (log2 enrichment (interaction score)),[10],< -6.56
same,binding signal (log2 enrichment (interaction score)),[11],-2.23
same,binding signal (log2 enrichment (interaction score)),[12],-1.64
same,binding signal (log2 enrichment (interaction score)),[13],-3.73
same,binding signal (log2 enrichment (interaction score)),[14],-0.97
same,binding signal (log2 enrichment (interaction score)),[15],-0.53
GGCUAGAACUAGUGGAUCCCCCGGCGCCCGGCGGCUCGAGCCCGGGUAAGUGUAAAUCGUCUGCAUGCCGCCGGGCGCCAUGCCUGCAGGUCGACUCUAGAAAACAUG,binding signal (log2 enrichment (interaction score)),[16],-1.12
GGCUAGAACUAGUGGAUCCCCCGGCGCCCGGCGGCUCGAGCCCGGGUAAGUGUAAAUUGUCUGCAUGCCGCCGGGCGCCAUGCCUGCAGGUCGACUCUAGAAAACAUG,binding signal (log2 enrichment (interaction score)),[17],-0.1
same,binding signal (log2 enrichment (interaction score)),[18],-1.2
GGCUAGAACUAGUGGAUCCCCCGGCGCCCGGCGGCUCGAGCCCGGGUAAGUUGACGACGUCUGCAUGCCGCCGGGCGCCAUGCCUGCAGGUCGACUCUAGAAAACAUG,binding signal (log2 enrichment (interaction score)),[19],4.6
GGCUAGAACUAGUGGAUCCCCCGGCGCCCGGCGGCUCGAGCCCGGGUAAGUGUACGACGUCUGCAUGCCGCCGGGCGCCAUGCCUGCAGGUCGACUCUAGAAAACAUG,binding signal (log2 enrichment (interaction score)),[20],-2.4

# Rewritten tab-delimited: entries from further up.
sequence	measurement	setting	value
GGCUAGAACUAGUGGAUCCCCCGGCGCCCGGCGGCUCGAGCCCGGGUAAGUGUAAAUGGUCUGCAUGCCGCCGGGCGCCAUGCCUGCAGGUCGACUCUAGAAAACAUG	binding signal (log2 enrichment (interaction score))	[13]	-3.73
same	binding signal (log2 enrichment (interaction score))	[15]	-0.53
GGCUAGAACUAGUGGAUCCCCCGGCGCCCGGCGGCUCGAGCCCGGGUAAGUGUAAAUUGUCUGCAUGCCGCCGGGCGCCAUGCCUGCAGGUCGACUCUAGAAAACAUG	binding signal (log2 enrichment (interaction score))	[17]	-0.1
GGCUAGAACUAGUGGAUCCCCCGGCGCCCGGCGGCUCGAGCCCGGGUAAGUGUACGACGUCUGCAUGCCGCCGGGCGCCAUGCCUGCAGGUCGACUCUAGAAAACAUG	binding signal (log2 enrichment (interaction score))	[20]	-2.4
